Among the data in article PMC3750171 are binding values, retold here.

In the experiment the target is HCV non-structural 5A (NS5A) protein, bait of the SH3 phage-display screen (hepatitis C virus (genotype not stated for this experiment)). The experiment can be described thus: phage display screen; phage-display library expressing the entire complement of human SH3 domains screened for NS5A interacting partners; no further details given.

No constants are given. Whether binding was seen depends on the method and setting. Binding can be weak; no strength is given.

B1: SH3 domain of mixed lineage kinase 3 (MLK3), displayed on phage (domain or fragment, UniProt Q16584 41-105)
chain: YANPVWTALFDYEPSGQDELALRKGDRVEVLSRDAAISGDEGWWAGQVGGQVGIFPSNYVSRGGG
For the molecule B1, the binding result is “binds”.
